Results from patent publication US7247440B2 (Takeda Pharmaceutical Company Limited, priority 2001, dated 2007).
Where no end group is shown, it is not given here.

Tests used:
[1] = general procedure: Fmoc solid-phase peptide synthesis; 2-chlorotrityl resin; DCC/HOBt; HBTU; settings: whole synthesis, scale 150 mg of 0.25 mmol resin batch
[2] = general procedure: Fmoc solid-phase peptide synthesis; Wang resin; DCC/HOBt; HBTU; settings: whole synthesis, scale 0.25 mmol
[3] = general procedure: Fmoc solid-phase peptide synthesis; 2-chlorotrityl resin (Clt resin, 1.33 mmol/g); Wang resin; DCC/HOBt; HBTU; settings: whole synthesis, scale of the general procedure 0.25 mmol

Substance	isolated mass [1] [mg]	isolated mass [2] [mg]	final HPLC purity [3] [%]
Fmoc-Trp-Tyr-Lys-His-Val-Ala-Ser-Pro-Arg-Tyr-His-Thr-Val-Gly-Arg-Ala-Ala-Gly-Leu-Leu-Met-Gly-Leu	9.7	–	–
WFKHVASPRYHTVGRAAGLL	–	35	98.8
